According to article PMC12485048:
No constants are given. Whether binding was seen depends on the method and setting. Binding seen in cells or lysates may run through a third protein. Some binding calls cover weakened binding; strength is not graded here.

Protein sequences, listed by entry. Tags and fused reporters are not part of them.
UniProt P63087: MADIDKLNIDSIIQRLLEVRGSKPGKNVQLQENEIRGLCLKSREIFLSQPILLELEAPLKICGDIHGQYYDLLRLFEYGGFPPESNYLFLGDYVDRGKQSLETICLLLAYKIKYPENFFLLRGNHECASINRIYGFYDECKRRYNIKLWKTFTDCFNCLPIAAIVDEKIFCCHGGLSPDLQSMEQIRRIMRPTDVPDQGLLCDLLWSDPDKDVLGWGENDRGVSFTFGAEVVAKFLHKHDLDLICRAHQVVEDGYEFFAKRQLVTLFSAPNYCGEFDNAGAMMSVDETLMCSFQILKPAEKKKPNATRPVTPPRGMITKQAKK

Biological target: T1, SH3RF2 (mouse (endogenous in striatum)) (UniProt Q8BZT2)
T1 sequence: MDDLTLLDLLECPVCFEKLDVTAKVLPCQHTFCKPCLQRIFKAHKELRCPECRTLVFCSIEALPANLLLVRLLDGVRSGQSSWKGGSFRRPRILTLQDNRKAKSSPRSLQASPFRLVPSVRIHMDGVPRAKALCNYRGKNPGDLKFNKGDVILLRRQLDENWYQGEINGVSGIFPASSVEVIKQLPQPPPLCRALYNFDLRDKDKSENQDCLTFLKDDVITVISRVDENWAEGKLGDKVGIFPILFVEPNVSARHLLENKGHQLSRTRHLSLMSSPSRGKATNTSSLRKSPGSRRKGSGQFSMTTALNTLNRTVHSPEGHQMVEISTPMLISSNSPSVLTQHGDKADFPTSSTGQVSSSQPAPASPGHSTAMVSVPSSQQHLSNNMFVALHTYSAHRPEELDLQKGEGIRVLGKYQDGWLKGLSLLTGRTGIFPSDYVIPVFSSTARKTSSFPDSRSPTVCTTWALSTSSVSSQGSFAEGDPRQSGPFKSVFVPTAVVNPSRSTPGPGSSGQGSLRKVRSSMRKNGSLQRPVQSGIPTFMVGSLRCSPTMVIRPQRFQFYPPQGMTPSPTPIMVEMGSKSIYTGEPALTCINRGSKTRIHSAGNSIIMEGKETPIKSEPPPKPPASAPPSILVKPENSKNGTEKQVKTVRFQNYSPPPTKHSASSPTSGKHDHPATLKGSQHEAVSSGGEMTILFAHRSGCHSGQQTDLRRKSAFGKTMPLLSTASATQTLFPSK
Test: co-IP; endogenous proteins in mouse striatum lysate (20 mM Tris-HCl pH 7.4, 50 mM NaCl, 0.5% NP-40, 10 mM HEPES, 0.5 mM EDTA); 2 μg primary antibody on Protein A/G or Protein G magnetic beads, lysate at 4 °C overnight; western blot; for CaMKII–PPP1CC, WT and Sh3rf2 KO striatum compared

PP1 catalytic subunit gamma (PPP1CC) (from UniProt P63087 1-323) (enzyme)
binding: binds
